The text below walks through data of PMC5706701, “Development of a homogenous high-throughput assay for inositol hexakisphosphate kinase 1 activity” (PLoS ONE, 2017).

Sequences of proteins named here, by UniProt entry; tags and fusion partners are left off. A change or cut given only in a name is not applied to a line headed by its entry.
UniProt Q92551: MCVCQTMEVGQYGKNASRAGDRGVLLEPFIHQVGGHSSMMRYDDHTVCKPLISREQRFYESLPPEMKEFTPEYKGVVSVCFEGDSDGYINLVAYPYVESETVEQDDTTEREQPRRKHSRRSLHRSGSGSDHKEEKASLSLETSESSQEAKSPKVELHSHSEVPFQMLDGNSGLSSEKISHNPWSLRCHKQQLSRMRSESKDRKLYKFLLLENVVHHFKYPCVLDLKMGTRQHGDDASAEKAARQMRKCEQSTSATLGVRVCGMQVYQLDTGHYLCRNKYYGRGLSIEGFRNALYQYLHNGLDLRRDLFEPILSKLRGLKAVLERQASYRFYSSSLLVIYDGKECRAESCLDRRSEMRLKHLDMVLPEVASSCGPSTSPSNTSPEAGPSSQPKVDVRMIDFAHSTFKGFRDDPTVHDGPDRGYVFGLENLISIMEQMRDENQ

This assay has as its target T1, Human IP6K1 (Homo sapiens, UniProt Q92551).
T1 construct: GST (N, cleaved yes); made in house; host or cells: C43 E. coli, pGEX-6P-2
Briefly: IP6K1 high-throughput screen of the Sigma LOPAC (ADP-Glo Max, single point).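 Note: final compound concentration 10µM in 5% DMSO.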 The assay is classed as biochemical. Background: In ADP-Glo the light output rises with the ADP produced.

Consider `CCCC[N+]1(C)[C@@H]2C[C@@H](OC(=O)[C@H](CO)c3ccccc3)C[C@H]1[C@@H]1O[C@@H]12.[Br-]` (single isomer, unassigned; (-)) [(-)-Scopolamine,n-Butyl-, bromide], for which the “Raw Signal” value worked out at 53834 and the Z-score is on record as -0.4254.
In the case of `CC[N+](CC)(CC)CC(=O)Nc1c(C)cccc1C.[Br-]`, the “Raw Signal” value is listed as 52677 and the Z-score was -0.2884.
